Results published in US8933235B2, “Pyridinedione carboxamide inhibitors of endothelial lipase” (Bristol-Myers Squibb Company, priority 2011, dated 2015).
Some results were stated once for a whole list of compounds, not compound by compound. For at least one compound, name, drawing or mass did not settle the structure.

What follows are molecules tested against T1, endothelial lipase (EL) (Homo sapiens, UniProt Q9Y5X9) (assay: Endothelial lipase (EL) enzymatic assay with fluorescent substrate A10070 in DMPG vesicles). Details: result in words.
T1 construct: Conditioned media obtained from HT-1080 cells, which were transformed by RAGE technology (Athersys) to overexpress endogenous EL; endogenous in cells; conditioned medium used as the enzyme source
T1 sequence (Q9Y5X9 21-500): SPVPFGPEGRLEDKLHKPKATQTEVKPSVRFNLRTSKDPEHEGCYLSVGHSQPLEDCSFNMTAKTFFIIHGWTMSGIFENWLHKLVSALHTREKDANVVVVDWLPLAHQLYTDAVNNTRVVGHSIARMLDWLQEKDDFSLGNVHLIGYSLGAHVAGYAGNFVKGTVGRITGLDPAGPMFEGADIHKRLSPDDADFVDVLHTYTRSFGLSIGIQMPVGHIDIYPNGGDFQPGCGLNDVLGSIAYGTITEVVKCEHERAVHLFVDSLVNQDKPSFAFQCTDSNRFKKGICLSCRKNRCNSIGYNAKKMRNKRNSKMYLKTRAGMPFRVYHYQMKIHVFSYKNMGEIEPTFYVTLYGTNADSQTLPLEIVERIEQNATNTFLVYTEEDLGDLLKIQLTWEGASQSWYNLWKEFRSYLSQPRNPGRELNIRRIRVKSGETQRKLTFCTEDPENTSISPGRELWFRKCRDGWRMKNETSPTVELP
Assay type: biochemical
With `O=C(NCCCc1ccc(Cl)c(Cl)c1)c1ccn(Cc2ccccc2)c(=O)c1O` [Example 154, 1-benzyl-N-(3-(3,4-dichlorophenyl)propyl)-3-hydroxy-2-oxo-1,2-dihydropyridine-4-carboxamide] the EL inhibitory activity was “found having EL inhibitory activity”. For `Cn1c(-c2ccc(F)cc2)cc(C(=O)NCCCc2ccc(Cl)c(Cl)c2)c(O)c1=O` [Example 2, N-(3-(3,4-dichlorophenyl)propyl)-6-(4-fluorophenyl)-3-hydroxy-1-methyl-2-oxo-1,2-dihydropyridine-4-carboxamide], the EL inhibitory activity was “found having EL inhibitory activity”. With `CC(C)C(CCc1ccc(Cl)c(Cl)c1)NC(=O)c1ccn(C)c(=O)c1O` (single isomer, unassigned) [Example 114, N-(1-(3,4-dichlorophenyl)-4-methylpentan-3-yl)-3-hydroxy-1-methyl-2-oxo-1,2-dihydropyridine-4-carboxamide] the EL inhibitory activity was “found having EL inhibitory activity”. With `Cc1c(C(=O)NC(C)CCc2ccc(Cl)c(Cl)c2)c(O)c(=O)n(C)c1C` (centres unmarked) [Example 107, N-(4-(3,4-dichlorophenyl)butan-2-yl)-3-hydroxy-1,5,6-trimethyl-2-oxo-1,2-dihydropyridine-4-carboxamide] the EL inhibitory activity was “found having EL inhibitory activity”. For `O=C(NCCCc1ccc(Cl)c(Cl)c1)c1ccn(CC2CC2)c(=O)c1O` [Example 156, 1-(cyclopropylmethyl)-N-(3-(3,4-dichlorophenyl)propyl)-3-hydroxy-2-oxo-1,2-dihydropyridine-4-carboxamide], the EL inhibitory activity was “found having EL inhibitory activity”. For `Cn1ccc(C(=O)NCCCOc2cccc(F)c2)c(O)c1=O` [Example 142, N-(3-(3-fluorophenoxy)propyl)-3-hydroxy-1-methyl-2-oxo-1,2-dihydropyridine-4-carboxamide], the EL inhibitory activity was “found having EL inhibitory activity”. For `COc1ccc(OCCCNC(=O)c2ccn(C)c(=O)c2O)cc1` [Example 141, 3-hydroxy-N-(3-(4-methoxyphenoxy)propyl)-1-methyl-2-oxo-1,2-dihydropyridine-4-carboxamide], the EL inhibitory activity was “found having EL inhibitory activity”. In the case of `Cn1ccc(C(=O)NCCc2ccc(Cl)cc2Cl)c(O)c1=O` [Example 132, N-(2,4-dichlorophenethyl)-3-hydroxy-1-methyl-2-oxo-1,2-dihydropyridine-4-carboxamide], the EL inhibitory activity is reported as “found having EL inhibitory activity”. For `COC(=O)c1cccc(OCCCNC(=O)c2cc(C(F)(F)F)n(C)c(=O)c2O)c1` [Example 90, methyl 3-(3-(3-hydroxy-1-methyl-2-oxo-6-(trifluoromethyl)-1,2-dihydropyridine-4-carboxamido)propoxy)benzoate], the EL inhibitory activity was “found having EL inhibitory activity”. In the case of `Cn1ccc(C(=O)NCc2cccc(OC(F)(F)F)c2)c(O)c1=O` [Example 135, 3-hydroxy-1-methyl-2-oxo-N-(3-(trifluoromethoxy)benzyl)-1,2-dihydropyridine-4-carboxamide], the EL inhibitory activity is reported as “found having EL inhibitory activity”. `O=C(NCCCc1ccc(Cl)c(Cl)c1)c1ccn(-c2ccncc2)c(=O)c1O` [Example 183, N-(3-(3,4-dichlorophenyl)propyl)-3-hydroxy-2-oxo-1-(pyridin-4-yl)-1,2-dihydropyridine-4-carboxamide] was tested, and the EL inhibitory activity was “found having EL inhibitory activity”. `Cn1ccc(C(=O)NCCCOc2ccccc2C(F)(F)F)c(O)c1=O` [Example 160, 3-hydroxy-1-methyl-2-oxo-N-(3-(2-(trifluoromethyl)phenoxy)propyl)-1,2-dihydropyridine-4-carboxamide] was tested, and the EL inhibitory activity was “found having EL inhibitory activity”. For `Cn1c(-c2cccc(NS(C)(=O)=O)c2)cc(C(=O)NCCCc2ccc(Cl)c(Cl)c2)c(O)c1=O` [Example 39, N-(3-(3,4-dichlorophenyl)propyl)-3-hydroxy-1-methyl-6-(3-(methyl-sulfonamido)phenyl)-2-oxo-1,2-dihydropyridine-4-carboxamide], the EL inhibitory activity was “found having EL inhibitory activity”. With `Cn1c(-c2cc(F)cc(C(F)(F)F)c2)cc(C(=O)NCCc2ccc(Cl)cc2Cl)c(O)c1=O` [Example 73, N-(2,4-dichlorophenethyl)-6-(3-fluoro-5-(trifluoromethyl)phenyl)-3-hydroxy-1-methyl-2-oxo-1,2-dihydropyridine-4-carboxamide] the EL inhibitory activity was “found having EL inhibitory activity”. In the case of `CN(C)C(=O)c1ccc(-c2cc(C(=O)NCCCc3ccc(Cl)c(Cl)c3)c(O)c(=O)n2C)cc1` [Example 41, N-(3-(3,4-dichlorophenyl)propyl)-6-(4-(dimethylcarbamoyl)phenyl)-3-hydroxy-1-methyl-2-oxo-1,2-dihydropyridine-4-carboxamide], the EL inhibitory activity is reported as “found having EL inhibitory activity”. With `Cn1ccc(C(=O)NCCCOc2ccccc2[N+](=O)[O-])c(O)c1=O` [Example 200, 3-hydroxy-1-methyl-N-(3-(2-nitrophenoxy)propyl)-2-oxo-1,2-dihydropyridine-4-carboxamide] the EL inhibitory activity was “found having EL inhibitory activity”. With `O=C(NCCCc1ccc(Cl)c(Cl)c1)c1ccn(Cc2ccccc2F)c(=O)c1O` [Example 171, N-(3-(3,4-dichlorophenyl)propyl)-1-(2-fluorobenzyl)-3-hydroxy-2-oxo-1,2-dihydropyridine-4-carboxamide] the EL inhibitory activity was “found having EL inhibitory activity”. `Cn1c(-c2ccc(NS(C)(=O)=O)cc2)cc(C(=O)NCCCc2ccc(Cl)c(Cl)c2)c(O)c1=O` [Example 38, N-(3-(3,4-dichlorophenyl)propyl)-3-hydroxy-1-methyl-6-(4-(methyl-sulfonamido)phenyl)-2-oxo-1,2-dihydropyridine-4-carboxamide] was tested, and the EL inhibitory activity was “found having EL inhibitory activity”. In the case of `O=C(NCCCc1ccc(Cl)c(Cl)c1)c1ccn(S(=O)(=O)c2ccccc2)c(=O)c1O` [Example 174, N-(3-(3,4-dichlorophenyl)propyl)-3-hydroxy-2-oxo-1-(phenylsulfonyl)-1,2-dihydropyridine-4-carboxamide], the EL inhibitory activity is reported as “found having EL inhibitory activity”. `Cn1ccc(C(=O)NCCCc2ccc(Cl)c(Cl)c2)c(NCc2ccccc2)c1=O` [Example 187, 3-(benzylamino)-N-(3-(3,4-dichlorophenyl)propyl)-1-methyl-2-oxo-1,2-dihydropyridine-4-carboxamide] was tested, and the EL inhibitory activity was “found having EL inhibitory activity”. `Cn1c(C(F)(F)F)cc(C(=O)NCCc2ccc(Cl)c(Cl)c2)c(O)c1=O` [Example 93, N-(3,4-dichlorophenethyl)-3-hydroxy-1-methyl-2-oxo-6-(trifluoromethyl)-1,2-dihydropyridine-4-carboxamide] was tested, and the EL inhibitory activity was “found having EL inhibitory activity”. For `CCn1ccc(C(=O)NCCCc2ccc(Cl)c(Cl)c2)c(O)c1=O` [Example 150, N-(3-(3,4-dichlorophenyl)propyl)-1-ethyl-3-hydroxy-2-oxo-1,2-dihydropyridine-4-carboxamide], the EL inhibitory activity was “found having EL inhibitory activity”. With `CC(CCCc1ccc(Cl)c(Cl)c1)NC(=O)c1cc(-c2cccc(C(F)(F)F)c2)n(C)c(=O)c1O` (single isomer, unassigned; isomer a) [Example 80, N-(5-(3,4-dichlorophenyl)pentan-2-yl)-3-hydroxy-1-methyl-2-oxo-6-(3-(trifluoromethyl)phenyl)-1,2-dihydropyridine-4-carboxamide (Isomer A)] the EL inhibitory activity was “found having EL inhibitory activity”. In the case of `Cn1ccc(C(=O)NC(CCc2ccc(Cl)c(Cl)c2)C2CC2)c(O)c1=O` (single isomer, unassigned) [Example 118, N-(1-cyclopropyl-3-(3,4-dichlorophenyl)propyl)-3-hydroxy-1-methyl-2-oxo-1,2-dihydropyridine-4-carboxamide], the EL inhibitory activity is reported as “found having EL inhibitory activity”. For `Cn1c(-c2cc(F)cc(C(F)(F)F)c2)cc(C(=O)NCCCOc2cccc(F)c2)c(O)c1=O` [Example 68, 6-(3-fluoro-5-(trifluoromethyl)phenyl)-N-(3-(3-fluorophenoxy)propyl)-3-hydroxy-1-methyl-2-oxo-1,2-dihydropyridine-4-carboxamide], the EL inhibitory activity was “found having EL inhibitory activity”. With `CC(C)OCCNc1c(C(=O)NCCCc2ccc(Cl)c(Cl)c2)ccn(C)c1=O` [Example 189, N-(3-(3,4-dichlorophenyl)propyl)-3-(2-isopropoxyethylamino)-1-methyl-2-oxo-1,2-dihydropyridine-4-carboxamide] the EL inhibitory activity was “found having EL inhibitory activity”. `Cn1c(-c2cc(F)cc(C(F)(F)F)c2)cc(C(=O)NCCCOc2cccc(C(F)(F)F)c2)c(O)c1=O` [Example 69, 6-(3-fluoro-5-(trifluoromethyl)phenyl)-3-hydroxy-1-methyl-2-oxo-N-(3-(3-(trifluoromethyl)phenoxy)propyl)-1,2-dihydropyridine-4-carboxamide] was tested, and the EL inhibitory activity was “found having EL inhibitory activity”. With `Cc1c(C(=O)NCCCc2ccc(Cl)c(Cl)c2)c(O)c(=O)n(C)c1C` [Example 106, N-(3-(3,4-dichlorophenyl)propyl)-3-hydroxy-1,5,6-trimethyl-2-oxo-1,2-dihydropyridine-4-carboxamide] the EL inhibitory activity was “found having EL inhibitory activity”. With `Cn1c(C(F)(F)F)cc(C(=O)NCCCOc2cccc(F)c2)c(O)c1=O` [Example 87, N-(3-(3-fluorophenoxy)propyl)-3-hydroxy-1-methyl-2-oxo-6-(trifluoromethyl)-1,2-dihydropyridine-4-carboxamide] the EL inhibitory activity was “found having EL inhibitory activity”.
